For this assay, the target named is albumin (in serum of RAG KO mouse) (UniProt P07724). As to the kind of experiment: native gel, in-gel butyrylcholinesterase activity staining of mouse serum.

Chains of the proteins cited; added tags and fusions are not shown. Lines headed by an entry give the natural chain unless they say otherwise; changes in a name come on top. Residues count along the entry.
UniProt P07724, residues 25-608: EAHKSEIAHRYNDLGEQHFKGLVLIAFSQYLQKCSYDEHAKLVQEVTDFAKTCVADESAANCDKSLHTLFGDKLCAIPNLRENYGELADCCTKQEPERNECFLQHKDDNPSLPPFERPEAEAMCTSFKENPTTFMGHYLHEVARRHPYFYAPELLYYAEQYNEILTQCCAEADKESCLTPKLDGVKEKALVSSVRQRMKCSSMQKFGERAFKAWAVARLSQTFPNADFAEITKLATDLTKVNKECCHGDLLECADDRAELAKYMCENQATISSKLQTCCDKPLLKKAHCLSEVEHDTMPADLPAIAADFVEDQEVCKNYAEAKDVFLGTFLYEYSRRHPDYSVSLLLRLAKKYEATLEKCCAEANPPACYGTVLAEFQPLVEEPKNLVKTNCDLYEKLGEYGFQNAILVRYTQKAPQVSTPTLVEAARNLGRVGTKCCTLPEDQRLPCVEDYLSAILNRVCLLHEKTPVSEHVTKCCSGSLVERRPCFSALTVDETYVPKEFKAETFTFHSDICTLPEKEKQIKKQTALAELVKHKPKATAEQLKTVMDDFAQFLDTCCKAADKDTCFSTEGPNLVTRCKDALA
UniProt P06276: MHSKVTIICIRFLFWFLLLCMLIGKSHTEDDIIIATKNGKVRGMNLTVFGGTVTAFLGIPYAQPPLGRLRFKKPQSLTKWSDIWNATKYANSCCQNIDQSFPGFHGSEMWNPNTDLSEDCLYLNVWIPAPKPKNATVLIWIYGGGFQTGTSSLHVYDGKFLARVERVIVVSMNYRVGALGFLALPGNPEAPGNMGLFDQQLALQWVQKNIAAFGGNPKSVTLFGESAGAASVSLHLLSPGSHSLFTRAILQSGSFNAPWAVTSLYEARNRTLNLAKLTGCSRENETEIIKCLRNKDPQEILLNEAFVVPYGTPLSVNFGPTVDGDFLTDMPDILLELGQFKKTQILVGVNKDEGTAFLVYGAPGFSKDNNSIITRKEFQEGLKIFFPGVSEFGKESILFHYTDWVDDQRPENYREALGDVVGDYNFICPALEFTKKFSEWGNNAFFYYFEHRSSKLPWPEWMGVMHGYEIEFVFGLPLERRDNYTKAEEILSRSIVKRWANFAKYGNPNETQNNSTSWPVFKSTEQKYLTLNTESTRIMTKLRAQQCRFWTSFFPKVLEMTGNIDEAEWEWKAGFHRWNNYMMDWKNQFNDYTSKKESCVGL

These are yes or no findings as the source states them, for the method shown. Some binding calls cover weakened binding; strength is not graded here.

Consider “human butyrylcholinesterase (hBChE) expressed from AAV8.UbC.hIL2.BChE C1.IRES.PRIMA1.SV40 vector (from UniProt P06276 27-602) (enzyme)”, for which the binding entry is reported as “binds”.
